Laboratory results taken from patent US20110171312A1 (Nektar Therapeutics, priority 2008, published 2011).

Assay: peptide synthesis
Conditions: conjugation step, C18 RP-HPLC (Betasil) on Agilent 1100

Row | Substance | final HPLC purity | purity (crude or final not stated)
1 | N^αB1-{3-[methoxy(ethoxy)2K]propionyl}insulin | >97% | –
2 | N^αB1-{3-[methoxy(ethoxy)3K]propionyl}insulin | >97% | –
3 | N^αB1-{3-[methoxy(ethoxy)5K]propionyl}insulin | – | 80%
4 | N^εB29-{3-[methoxy(ethoxy)2K]propionyl}insulin | – | 98%
5 | N^εB29-{3-[methoxy(ethoxy)750]proprionyl}insulin | – | 99%
